Test results reported in US8822182B2, “Chimeric antigen-specific T cell-activating polypeptides” (Mayo Foundation for Medical Education and Research, priority 2001, dated 2014).
Some results were stated once for a whole list of compounds, not compound by compound.

Experiments:
[1] = system: TAP-expressing EL4 target cells; experiment: 51Cr release cytotoxicity assay, OVA257-specific H-2K^b-restricted CTL, EL4 targets; assay type: cell-based, mouse; details: peptide titration curves, 30 minutes, E:T 20:1, FIG. 5
[2] = system: TAP-deficient T2/K^b target cells; experiment: 51Cr release cytotoxicity assay, OVA257-specific H-2K^b-restricted CTL, T2/K^b targets; assay type: cell-based, human; details: peptide titration curves, 30 minutes, E:T 20:1, FIG. 5

## RKKRRQRRRAAASIINFEKL [HIVtat-OVA257]
[1]
  potency relative to OVA257 in sensitizing cells for lysis by antigen-specific CTL: 10-1000 fold
[2]
  potency relative to OVA257 in sensitizing cells for lysis by antigen-specific CTL: 10-1000 fold

## SIINFEKLAAARKKRRQRRR [OVA257-HIVtat]
[1]
  potency relative to OVA257 in sensitizing cells for lysis by antigen-specific CTL: 10-1000 fold
[2]
  potency relative to OVA257 in sensitizing cells for lysis by antigen-specific CTL: 10-1000 fold
